Data published in patent US20140371074A1, “METHOD TO INCREASE PLANT YIELD” (priority 2012, published 2014).

Legend:
Format in all cases: in vivo
[1] = system: soybean variety Asgrow 2933; assay: Field: side dress with 2,4-D Low Vol 4 solution, Laurel, Iowa (Table 3)
Description: Plants were grown from Roundup Ready variety Asgrow 2933 seed that was treated with accelron (Monsanto) prior to planting. Plants were side dressed by application with a 3-point cultivator modified to spray on the ground in front of the shanks, the shanks then mix the 2,4-D mixture with the soil and move the mixture closer to the plant roots. Plants were treated with between 1X and 4X of 2,4-D Low Vol 4 solution, where 1X is equivalent to approximately 0.19 pounds acid equivalent of 2,4-D. Plants were grown with a row width of 30 inches and row length of 562 feet.

[2] = system: soybean cultivars L2084R2, L2711R2X; assay: Field 2012: 2,4-D Low Vol 4 + crop oil drizzled onto soil at R1 stage, Alexander, Iowa (Table 2a)
Description: Plants were treated by drizzling via low pressure spraying the 2,4-D solution onto the soil along each side of the rows when plants are at the R1 stage of growth. The date of planting was May 15, 2012 and the date of harvest was Oct. 2, 2012 at plots in Alexander, Iowa (Table 2a) and Laurel, Iowa (Table 2b). Plants were grown from Roundup Ready seed and were sprayed with glyphosate for weed control. Plants were treated with between 1X and 5.5X of 2,4-D solution mixed with crop oil at 15.3 ounces of 2,4-D Low Vol 4 plus 0.32 ounces crop oil per gallon, where 1X is equivalent to approximately 0.45 pounds acid equivalent of 2,4-D. Two repetitions were performed at different plots. […] The moisture percentages were used in correcting each yield to a 13% moisture basis.

[3] = system: soybean Latham 2767 Roundup Ready; assay: Field: seed treatment with 2,4-D solution 1X-10X, Laurel, Iowa (Table 6); conditions: 1X~0.0002968 lb a.e.
Description: Previously untreated soybean seeds were treated with between 1X to 10X of 2,4-D solution, where 1X is equivalent to approximately 0.0002968 pounds acid equivalent of 2,4-D. The seed variety was Latham 2767 Roundup Ready seeds and seeds were planted in Laurel, Iowa with a row width of 30 inches. Plants were sprayed with foliar insecticide and fungicide.

[4] = 1.0X Rate, L2084R2, 1X~0.45 lb a.e.
[5] = 1.0X Rate, L2711R2X, 1X~0.45 lb a.e.
[6] = 1.5X Rate, L2084R2, 1X~0.45 lb a.e.
[7] = 1.5X Rate, L2711R2X, 1X~0.45 lb a.e.
[8] = 2.0X Rate, L2084R2, 1X~0.45 lb a.e.
[9] = 2.5X Rate, L2084R2, 1X~0.45 lb a.e.
[10] = 2.5X Rate, L2711R2X, 1X~0.45 lb a.e.
[11] = 3.0X Rate, L2084R2, 1X~0.45 lb a.e.
[12] = 3.0X Rate, L2711R2X, 1X~0.45 lb a.e.
[13] = Overall location average, all rates, both cultivars

Question: `O=C(O)COc1ccc(Cl)cc1Cl` [2,4-D, 2,4-Dichlorophenoxyacetic acid] was tested. Which Harvest moisture ([1]; 1X side dress (1X~0.19 lb a.e.)) did it give?
Answer: 8.8%

Question: And the Harvest moisture ([1]; 2X side dress (1X~0.19 lb a.e.))?
Answer: 9.4%

Question: What about the Harvest moisture ([1]; 3X side dress (1X~0.19 lb a.e.)) of the same compound?
Answer: 8.3%

Question: And the Harvest moisture ([1]; 4X side dress (1X~0.19 lb a.e.))?
Answer: 8.7%

Question: What about the “Repetition 1 Moisture” value [2, 4] of the same compound?
Answer: 4.3%

Question: And the “Repetition 2 Moisture” value [2, 4]?
Answer: 4.9%

Question: What about the “Repetition 1 Moisture” value [2, 5] of the same compound?
Answer: 4.1%

Question: And the “Repetition 2 Moisture” value [2, 5]?
Answer: 4.9%

Question: And the “Repetition 1 Moisture” value [2, 6]?
Answer: 4.3%

Question: And the “Repetition 2 Moisture” value [2, 6]?
Answer: 5.2%

Question: What about the “Repetition 1 Moisture” value [2, 7] of the same compound?
Answer: 4.2%

Question: What about the “Repetition 2 Moisture” value [2, 7] of the same compound?
Answer: 5%

Question: And the “Repetition 1 Moisture” value [2, 8]?
Answer: 4.5%

Question: And the “Repetition 2 Moisture” value [2, 8]?
Answer: 5.1%

Question: And the “Repetition 2 Moisture” value ([2]; 2.0X Rate, L2711R2X, 1X~0.45 lb a.e.)?
Answer: 5%

Question: And the “Repetition 1 Moisture” value [2, 9]?
Answer: 4.3%

Question: And the “Repetition 2 Moisture” value [2, 9]?
Answer: 5.2%

Question: What about the “Repetition 1 Moisture” value [2, 10] of the same compound?
Answer: 4.5%

Question: And the “Repetition 2 Moisture” value [2, 10]?
Answer: 4.9%

Question: What about the “Repetition 1 Moisture” value [2, 11] of the same compound?
Answer: 4.4%

Question: What about the “Repetition 2 Moisture” value [2, 11] of the same compound?
Answer: 5.1%

Question: What about the “Repetition 1 Moisture” value [2, 12] of the same compound?
Answer: 4.6%

Question: And the “Repetition 2 Moisture” value [2, 12]?
Answer: 5.1%

Question: And the “Repetition 1 Moisture” value ([2]; 3.5X Rate, L2084R2, 1X~0.45 lb a.e.)?
Answer: 4.9%

Question: And the “Repetition 1 Moisture” value ([2]; 3.5X Rate, L2711R2X, 1X~0.45 lb a.e.)?
Answer: 4.6%

Question: What about the “Repetition 1 Moisture” value ([2]; 4.0X Rate, L2084R2, 1X~0.45 lb a.e.) of the same compound?
Answer: 4.8%

Question: And the “Repetition 1 Moisture” value ([2]; 4.0X Rate, L2711R2X, 1X~0.45 lb a.e.)?
Answer: 4.8%

Question: What about the “Repetition 1 Moisture” value ([2]; 4.5X Rate, L2084R2, 1X~0.45 lb a.e.) of the same compound?
Answer: 4.9%

Question: And the “Repetition 1 Moisture” value ([2]; 4.5X Rate, L2711R2X, 1X~0.45 lb a.e.)?
Answer: 4.7%

Question: And the “Repetition 1 Moisture” value ([2]; 5.0X Rate, L2084R2, 1X~0.45 lb a.e.)?
Answer: 4.7%

Question: What about the “Repetition 1 Moisture” value ([2]; 5.0X Rate, L2711R2X, 1X~0.45 lb a.e.) of the same compound?
Answer: 4.6%

Question: And the “Repetition 1 Moisture” value ([2]; 5.5X Rate, L2084R2, 1X~0.45 lb a.e.)?
Answer: 4.8%

Question: What about the “Repetition 1 Moisture” value ([2]; 5.5X Rate, L2711R2X, 1X~0.45 lb a.e.) of the same compound?
Answer: 4.9%

Question: And the “Repetition 2 Moisture” value ([2]; Average over 1.0X-3.0X Rates, L2084R2)?
Answer: 5.10%

Question: And the “Repetition 2 Moisture” value ([2]; Average over 1.0X-3.0X Rates, L2711R2X)?
Answer: 4.98%

Question: And the “Repetition 1 Moisture” value ([2]; Average over 1.0X-5.5X Rates, L2084R2)?
Answer: 4.59%

Question: What about the “Repetition 1 Moisture” value ([2]; Average over 1.0X-5.5X Rates, L2711R2X) of the same compound?
Answer: 4.56%

Question: What about the “Repetition 1 Moisture” value [2, 13] of the same compound?
Answer: 4.57%

Question: What about the “Repetition 2 Moisture” value [2, 13] of the same compound?
Answer: 5.04%

Question: And the Harvest moisture ([3]; 1X seed treatment)?
Answer: 12.7%

Question: And the Harvest moisture ([3]; 2X seed treatment)?
Answer: 15.6%

Question: What about the Harvest moisture ([3]; 3X seed treatment) of the same compound?
Answer: 18.7%

Question: What about the Harvest moisture ([3]; 4X seed treatment) of the same compound?
Answer: 20.5%

Question: And the Harvest moisture ([3]; 5X seed treatment)?
Answer: 22.4%

Question: What about the Harvest moisture ([3]; 6X seed treatment) of the same compound?
Answer: 21.2%

Question: What about the Harvest moisture ([3]; 7X seed treatment) of the same compound?
Answer: 24.1%

Question: And the Harvest moisture ([3]; 8X seed treatment)?
Answer: 24.3%

Question: What about the Harvest moisture ([3]; 9X seed treatment) of the same compound?
Answer: 22.6%

Question: And the Harvest moisture ([3]; 10X seed treatment)?
Answer: 20.3%
